Results are given in words; binding and its absence hold for the method and conditions named. Some results given as binding are weak or reduced against the parent protein; the word gives no strength.
Legend:
Assay in all cases: peptide or protein array; HuProt human proteome microarray; 5 ug/5 ml biotin-labelled LUBAC or OTULIN in solution, 1 h at room temperature; Cy5-streptavidin, scanned at 635 nm; BSA as negative control; hits: Z-score >= 3 and I_(Mean_Ratio) >= 1.4; both purified
C11orf1 (human) = target: T1, C11orf1 (human) (UniProt Q9H5F2)
T1 sequence: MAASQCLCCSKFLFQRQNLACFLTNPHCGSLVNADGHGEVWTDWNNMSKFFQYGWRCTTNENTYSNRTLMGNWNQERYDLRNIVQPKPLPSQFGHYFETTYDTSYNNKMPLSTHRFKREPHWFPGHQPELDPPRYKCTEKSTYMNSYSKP

Sequences of proteins named here, by UniProt entry; tags and fusion partners are left off.
UniProt Q07666: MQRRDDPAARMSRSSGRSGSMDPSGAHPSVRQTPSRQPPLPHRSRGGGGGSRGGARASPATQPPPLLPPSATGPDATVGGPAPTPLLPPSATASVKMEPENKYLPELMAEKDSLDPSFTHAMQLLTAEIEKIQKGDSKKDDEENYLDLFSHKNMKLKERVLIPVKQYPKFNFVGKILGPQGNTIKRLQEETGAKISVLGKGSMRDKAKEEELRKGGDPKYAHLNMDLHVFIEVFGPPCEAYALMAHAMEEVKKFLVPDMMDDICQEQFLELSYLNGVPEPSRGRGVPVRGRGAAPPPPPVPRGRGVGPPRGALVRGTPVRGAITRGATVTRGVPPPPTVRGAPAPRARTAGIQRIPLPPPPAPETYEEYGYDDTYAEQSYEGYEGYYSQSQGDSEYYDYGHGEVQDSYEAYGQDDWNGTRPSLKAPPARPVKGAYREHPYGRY

CDCA3 (human) = target: T2, CDCA3 (human) (UniProt Q99618)
T2 sequence: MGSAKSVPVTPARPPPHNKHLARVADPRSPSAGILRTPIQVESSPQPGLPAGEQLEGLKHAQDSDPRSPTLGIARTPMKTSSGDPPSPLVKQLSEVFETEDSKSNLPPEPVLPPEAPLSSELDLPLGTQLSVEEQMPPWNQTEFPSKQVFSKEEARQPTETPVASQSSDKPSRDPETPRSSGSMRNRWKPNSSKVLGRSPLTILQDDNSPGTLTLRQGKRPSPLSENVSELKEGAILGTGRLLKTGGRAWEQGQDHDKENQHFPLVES

KHDRBS1 (human) = KHDRBS1 (human) (UniProt Q07666)
OPHN1 (human) = target: T3, OPHN1 (human) (UniProt O60890)
T3 sequence: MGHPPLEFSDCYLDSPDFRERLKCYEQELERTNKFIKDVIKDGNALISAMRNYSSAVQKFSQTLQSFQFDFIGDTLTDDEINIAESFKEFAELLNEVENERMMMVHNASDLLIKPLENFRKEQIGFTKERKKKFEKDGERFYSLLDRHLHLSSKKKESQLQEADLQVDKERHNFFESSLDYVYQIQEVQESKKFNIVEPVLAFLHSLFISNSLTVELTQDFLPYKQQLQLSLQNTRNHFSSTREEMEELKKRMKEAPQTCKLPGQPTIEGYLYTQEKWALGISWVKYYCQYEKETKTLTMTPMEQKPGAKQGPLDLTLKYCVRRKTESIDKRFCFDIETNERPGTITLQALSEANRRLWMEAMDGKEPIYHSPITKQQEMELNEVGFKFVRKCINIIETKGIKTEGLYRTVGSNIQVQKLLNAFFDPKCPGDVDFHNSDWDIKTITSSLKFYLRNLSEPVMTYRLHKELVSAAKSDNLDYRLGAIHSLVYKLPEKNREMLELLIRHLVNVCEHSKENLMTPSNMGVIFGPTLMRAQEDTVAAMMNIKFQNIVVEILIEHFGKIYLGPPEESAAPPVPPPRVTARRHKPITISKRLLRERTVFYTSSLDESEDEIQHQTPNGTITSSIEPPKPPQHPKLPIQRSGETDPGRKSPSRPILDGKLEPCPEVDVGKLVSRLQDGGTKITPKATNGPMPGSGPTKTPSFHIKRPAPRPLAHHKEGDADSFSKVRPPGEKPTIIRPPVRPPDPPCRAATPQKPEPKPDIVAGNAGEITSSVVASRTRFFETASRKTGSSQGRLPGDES

RPP25 (human) = target: T4, RPP25 (human) (UniProt Q9BUL9)
T4 sequence: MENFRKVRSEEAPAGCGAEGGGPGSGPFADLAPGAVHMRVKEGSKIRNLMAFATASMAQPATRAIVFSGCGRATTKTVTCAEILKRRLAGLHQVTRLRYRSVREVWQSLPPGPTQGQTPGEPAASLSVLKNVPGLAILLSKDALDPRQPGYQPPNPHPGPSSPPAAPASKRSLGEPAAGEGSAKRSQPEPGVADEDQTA

SH3GLB2 (human) = target: T5, SH3GLB2 (human) (UniProt Q9NR46)
T5 sequence: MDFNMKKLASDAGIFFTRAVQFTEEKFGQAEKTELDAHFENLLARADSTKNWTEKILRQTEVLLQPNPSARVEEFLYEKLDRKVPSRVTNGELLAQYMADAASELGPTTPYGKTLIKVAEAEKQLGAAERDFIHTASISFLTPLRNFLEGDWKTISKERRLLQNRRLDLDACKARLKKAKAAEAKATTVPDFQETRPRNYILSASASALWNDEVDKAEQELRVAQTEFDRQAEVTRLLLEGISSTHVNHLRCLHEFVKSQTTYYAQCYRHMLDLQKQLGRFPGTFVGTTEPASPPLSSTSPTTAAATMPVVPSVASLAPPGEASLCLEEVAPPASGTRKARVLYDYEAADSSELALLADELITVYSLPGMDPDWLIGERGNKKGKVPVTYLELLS

XAGE3 (human) = target: T6, XAGE3 (human) (UniProt Q8WTP9)
T6 sequence: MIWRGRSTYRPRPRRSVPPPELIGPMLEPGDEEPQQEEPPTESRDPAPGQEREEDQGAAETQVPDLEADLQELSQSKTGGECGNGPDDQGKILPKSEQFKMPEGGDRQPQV

Measured: binding

linear ubiquitin chain assembly complex (LUBAC), purified as HIS-tagged HOIP with the subunit HOIL-1, biotin-labelled (from UniProt Q96EP0 1-1072; Q9BYM8 1-510)
binds: all assays above

Source: PMC8274477
